Experimental data as given in the supplement of paper PMC6289059.
The list shows a part of the results. Repeats are few or missing, and single values can be far off.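 The cells are hepatocyte-like cells grown from human stem cells in which the DGUOK gene was disrupted by CRISPR, a model of liver mtDNA depletion syndrome. Each well's ATP signal was scored against the other wells on its plate, and a drug counted as a primary hit when its score was 3 or higher.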

Test system: DGUOK Δ14/Δ5 iPSC-derived hepatocyte-like cells (SV20)
Experiment: ATP level (CellTiter-Glo luminescence) Z score relative to plate distribution, under 2-DG glycolysis block; higher = more cellular ATP (rescue of mitochondrial ATP production)
Conditions: 5 µM; treatment time: day 15 to day 20 of differentiation (5 days); 2-deoxy-D-glucose: 20 mM for 24 h before assay

SMILES | ATP level
CC(=O)O[C@@H]1[C@H]2CC[C@H]3[C@@](C)(O)[C@@H]4C[C@H](O)C(C)(C)[C@@]4(O)[C@H](O)C[C@@]13C[C@@]2(C)O | inactive: 1.33
N[C@H](CO)Cc1ccccc1 | inactive: -0.686
Cc1[nH]c2ccccc2c1CN(C)C | inactive: -2.28
CC(C)c1cc2c(c(O)c1O)[C@@]1(C(=O)O)CCCC(C)(C)[C@@H]1CC2 | inactive: -2.19
CC(C)c1cccc(C(C)C)c1O | inactive: -1.78
COC1=CC(=O)O[C@@H](/C=C/c2ccccc2)C1 | inactive: 2.31
Oc1ccc2c3c1O[C@H]1[C@@H](O)CC[C@@]4(O)[C@@H](C2)N(CC2CCC2)CC[C@]314 | inactive: 0.361
O=C(O)CC[N+](=O)[O-] | inactive: -0.0459
CN1CCc2cc3c(cc2[C@H]1[C@@H]1OC(=O)c2c1ccc1c2OCO1)OCO3 | inactive: 1.18
CC(=O)O[C@H]1CC[C@@]2(C)C(=CC[C@@H]3[C@@H]2CC[C@]2(C)C(=O)CC[C@@H]32)C1 | inactive: 0.329
CN1C[C@H](CNC(=O)OCc2ccccc2)C[C@@H]2c3cccc4c3c(cn4C)C[C@H]21 | inactive: -3.6
CC[C@@H](CO)NC(=O)[C@@H]1C=C2c3cccc4c3c(cn4C)C[C@H]2N(C)C1 | inactive: -0.491
N#C[C@H](O[C@@H]1O[C@H](CO[C@@H]2O[C@H](CO)[C@@H](O)[C@H](O)[C@H]2O)[C@@H](O)[C@H](O)[C@H]1O)c1ccccc1 | inactive: 1.54
COc1cc2c(c(OC)c1OC)-c1ccc(OC)c(=O)cc1[C@@H](NC(C)=O)CC2 | inactive: -4.94
CC[C@@]1([C@H]2O[C@H]([C@H]3O[C@@](O)(CO)[C@H](C)C[C@@H]3C)C[C@H]2C)CC[C@H]([C@@]2(C)CC[C@]3(C[C@H](O)[C@@H](C)[C@@H]([C@H](C)[C@H](OC)[C@@H](C)C(=O)O)O3)O2)O1 [MONENSIN SODIUM (monensin A is shown)] | inactive: -13.9
C[C@]12CC[C@H](O)CC1=CC[C@@H]1[C@@H]2CC[C@]2(C)C(=O)CC[C@@H]12 | inactive: 0.515
C[C@@H]1C[C@H](O)[C@@]2(O)[C@]13CC(=O)OC[C@@]2(C)[C@@](C)(O)C(=O)C3 | inactive: 1.62
CC[N+]1(C)CCCC(OC(=O)C(O)(c2ccccc2)c2ccccc2)C1 (stereo unspecified) | inactive: -0.317
c1ccc2c(c1)OCC(C1=NCCN1)O2 (stereo unspecified) | inactive: 0.297
N#Cc1c(Cl)c(Cl)c(Cl)c(C#N)c1Cl | inactive: 1.94
Cc1cc(C(C#N)c2ccc(Cl)cc2)c(Cl)cc1NC(=O)c1cc(I)cc(I)c1O (stereo unspecified) | inactive: -1.85
COc1ccc2c(c1OC)C(=O)O[C@@H]2[C@H]1c2cc3c(cc2CCN1C)OCO3 | inactive: 0.181
O=C(O)c1nn(Cc2ccc(Cl)cc2Cl)c2ccccc12 | inactive: 1.47
C[N+]12CC[C@@]34c5ccccc5N5C(=O)C[C@@H]6OCC=C(C1)[C@H](C[C@@H]32)[C@@H]6[C@H]54 (stereo partly specified) | inactive: -3.71
COc1cc2c(cc1O)CCN[C@@H]2C | inactive: 1.59
C[C@@H]1C[C@@H]([C@H](O)CC2CC(=O)NC(=O)C2)C(=O)[C@@H](C)C1 | inactive: -5.66

SMILES | ATP level
O=C(NC(=O)c1c(F)cccc1F)Nc1ccc(Cl)cc1 | inactive: -6.2
COc1cc2c(cc1OC)[C@@H]1C(=O)c3ccc4c(c3O[C@@H]1CO2)CC(C(C)C)O4 (stereo partly specified) | inactive: -14
CCC1(C2=NCCN2)Cc2ccccc2O1 (stereo unspecified) | inactive: 0.636
CC[C@@H](CO)NC(=O)[C@@H]1C=C2c3cccc4[nH]cc(c34)C[C@H]2N(C)C1 | inactive: -1.24
CCCCOC(=O)c1ccccc1C(=O)OCCCC | inactive: -0.37
CCC(C)C(=O)OC1CC2(C)C(c3ccoc3)OC(=O)CC23OC2(C)OC34C(OC(=O)C(C)C)C3(O)C(OC(=O)C5(C)OC5C)C5(C)CC3(O)C(C)(C5CC(=O)OC)C14O2 (stereo unspecified) | inactive: -0.983
C[N+]1(C)CCc2cc3c(cc2[C@H]1[C@@H]1OC(=O)c2c1ccc1c2OCO1)OCO3 | inactive: -0.792
C=CCc1cc(OC)c2c(c1OC)OCO2 | active: 3.08
c1cncc([C@@H]2CCCCN2)c1 | inactive: 0.245
CC(=O)O[C@H]1C(=O)[C@@]2(C)[C@H]([C@H](OC(=O)c3ccccc3)[C@]3(O)C[C@H](O)C(C)=C1C3(C)C)[C@]1(OC(C)=O)CO[C@@H]1C[C@@H]2O | inactive: 2.54
CC(C)(C#N)O[C@@H]1O[C@H](CO)[C@@H](O)[C@H](O)[C@H]1O | inactive: -0.523
CC(C)(O)[C@@H]1[C@H]2OC(=O)[C@@H]1[C@]1(O)C[C@H]3O[C@]34C(=O)O[C@H]2[C@]14C | inactive: -0.554
C=C(C)[C@H]1Cc2c(ccc3c(=O)c4c(oc23)COc2cc(OC)c(OC)cc2-4)O1 | inactive: -1.48
O=C(O)CF | inactive: -1.64
O=C(CCCN1CCC2(CC1)C(=O)NCN2c1ccccc1)c1ccc(F)cc1 | inactive: -0.204
CC1(C)C(=O)[C@@H]2O[C@@H]2[C@@]2(C)C1C[C@@H](O)[C@]1(C)C2CC[C@@]2(C)[C@H](c3ccoc3)OC(=O)C3OC321 (stereo partly drawn) [1,2alpha-EPOXYDEACETOXYDIHYDROGEDUNIN] | inactive: 1.11
COc1cccc(C=O)c1OC | inactive: -3.04
O=[N+]([O-])O[C@H]1CO[C@H]2[C@@H]1OC[C@H]2O[N+](=O)[O-] | inactive: 0.407
O=c1cccc2n1C[C@@H]1CNC[C@H]2C1 | active: 3.7
NCC1(CC(=O)O)CCCCC1 | inactive: 1.36
COc1cc2ccc(=O)oc2c2ccoc12 | inactive: 1.22
CC[C@@H](C)C(=O)O[C@H]1[C@H](O)[C@H]2[C@@H](CN3C[C@@H](C)CC[C@H]3[C@@]2(C)O)[C@@H]2C[C@]34O[C@]5(O)[C@@H](OC(=O)[C@@](C)(O)CC)CC[C@@]3(C)[C@@H]5[C@@H](OC(C)=O)[C@@H](OC(C)=O)[C@H]4[C@@]21O | inactive: 0.924
C=CCc1ccc(OC)cc1 | inactive: 0.697
CNC(=O)Oc1cccc2ccccc12 | inactive: 0.355
CCOC(=O)c1cncn1[C@H](C)c1ccccc1 | inactive: -1.56

Reformatted: entries from further up.
SMILES	ATP level
CC1(C)C(=O)[C@@H]2O[C@@H]2[C@@]2(C)C1C[C@@H](O)[C@]1(C)C2CC[C@@]2(C)[C@H](c3ccoc3)OC(=O)C3OC321 (stereo partly drawn) [1,2alpha-EPOXYDEACETOXYDIHYDROGEDUNIN]	inactive: 1.11
COc1cccc(C=O)c1OC	inactive: -3.04
